These are yes or no findings as the source states them, for the method shown. In cells and extracts the contact can be indirect. Some results given as binding are weak or reduced against the parent protein; the word gives no strength. Tags and fused reporters may be left off the sequences shown.
Experiments:
[1] = target: T1, FLAG-SREC-I (scavenger receptor associated with endothelial cells I) (human) (UniProt Q14162); test: condition: only unstimulated cells, without LPS or Hsp90; co-IP; HEK 293 cells expressing FLAG-SREC-I and TLR4, control, unstimulated (no LPS, no Hsp90); NP-40 lysis buffer (1% Nonidet P-40, 150 mM NaCl, 1 mM EDTA); FLAG-SREC-I immunoprecipitated with FLAG antibody, blotted for TLR4
T1 sequence: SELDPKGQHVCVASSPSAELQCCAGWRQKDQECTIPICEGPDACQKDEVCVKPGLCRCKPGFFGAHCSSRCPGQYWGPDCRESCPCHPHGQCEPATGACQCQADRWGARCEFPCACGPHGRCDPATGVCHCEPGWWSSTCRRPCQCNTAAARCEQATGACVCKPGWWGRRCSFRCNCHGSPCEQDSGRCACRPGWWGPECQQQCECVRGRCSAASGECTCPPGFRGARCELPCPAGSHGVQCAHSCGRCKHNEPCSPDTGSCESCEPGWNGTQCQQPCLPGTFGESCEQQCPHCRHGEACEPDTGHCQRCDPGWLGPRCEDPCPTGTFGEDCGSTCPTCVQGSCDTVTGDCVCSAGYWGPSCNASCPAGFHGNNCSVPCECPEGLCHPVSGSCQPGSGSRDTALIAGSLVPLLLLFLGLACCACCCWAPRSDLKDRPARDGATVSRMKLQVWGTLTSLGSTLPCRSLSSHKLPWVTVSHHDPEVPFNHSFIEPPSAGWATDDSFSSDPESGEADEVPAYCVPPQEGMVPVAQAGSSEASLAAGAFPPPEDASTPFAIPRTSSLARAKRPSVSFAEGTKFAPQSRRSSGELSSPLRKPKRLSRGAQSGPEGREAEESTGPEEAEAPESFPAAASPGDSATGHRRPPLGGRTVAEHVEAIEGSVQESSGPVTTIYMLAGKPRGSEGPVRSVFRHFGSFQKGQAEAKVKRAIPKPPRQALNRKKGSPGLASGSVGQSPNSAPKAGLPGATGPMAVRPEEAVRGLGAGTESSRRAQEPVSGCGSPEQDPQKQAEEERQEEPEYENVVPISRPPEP

Amino acid sequences for entries named in this document (tags omitted). Residues count along the entry.
UniProt O00206, residues 24-839: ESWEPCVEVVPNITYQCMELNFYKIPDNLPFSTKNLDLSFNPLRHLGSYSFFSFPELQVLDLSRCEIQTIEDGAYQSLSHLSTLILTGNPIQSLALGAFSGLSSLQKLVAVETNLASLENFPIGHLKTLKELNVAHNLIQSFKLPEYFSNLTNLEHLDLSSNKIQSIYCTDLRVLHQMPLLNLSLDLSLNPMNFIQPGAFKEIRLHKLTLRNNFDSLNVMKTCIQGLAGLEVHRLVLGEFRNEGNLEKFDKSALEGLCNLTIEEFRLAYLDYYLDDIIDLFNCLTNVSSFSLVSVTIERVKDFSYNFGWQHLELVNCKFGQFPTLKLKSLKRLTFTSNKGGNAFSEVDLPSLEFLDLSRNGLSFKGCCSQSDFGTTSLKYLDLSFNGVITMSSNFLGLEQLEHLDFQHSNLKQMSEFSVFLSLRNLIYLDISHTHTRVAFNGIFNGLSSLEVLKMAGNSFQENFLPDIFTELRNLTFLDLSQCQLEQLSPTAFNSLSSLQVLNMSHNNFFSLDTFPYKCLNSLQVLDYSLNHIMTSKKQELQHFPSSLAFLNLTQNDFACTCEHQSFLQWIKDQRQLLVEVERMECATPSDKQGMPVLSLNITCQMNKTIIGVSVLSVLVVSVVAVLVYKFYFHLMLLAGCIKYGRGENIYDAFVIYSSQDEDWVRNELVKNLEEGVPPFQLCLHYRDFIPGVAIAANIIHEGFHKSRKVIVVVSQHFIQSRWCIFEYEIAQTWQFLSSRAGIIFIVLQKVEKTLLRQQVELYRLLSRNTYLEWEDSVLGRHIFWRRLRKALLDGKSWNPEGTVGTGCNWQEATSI

[2] = target: T1, FLAG-SREC-I (scavenger receptor associated with endothelial cells I) (human); test: co-IP; HEK 293 cells expressing FLAG-SREC-I and TLR4, control, unstimulated (no LPS, no Hsp90); NP-40 lysis buffer (1% Nonidet P-40, 150 mM NaCl, 1 mM EDTA); FLAG-SREC-I immunoprecipitated with FLAG antibody, blotted for TLR4

- binding [1]: no binding
- binding [2]: binds weakly
Substance: Toll-like receptor 4 (TLR4) (from UniProt O00206 24-839)

— publication PMC4383338
